Experimental data reported in PubChem BioAssay AID651664 (NMMLSC, 2012).
In all, about 1,800 compounds went through this assay and fewer than 10 were called active.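 The calls were made as follows: active = inhibition of granule release above a set limit; inactive = the rest.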 The list shows a part of the results.

test: LAMP-1 surface externalization blockers in TALL-104 cells – cell-based, flow cytometry, validation set (AID 651664); conditions: TALL-104 LAMP-1 externalization, at 15.2 µM, stronger effect = higher value, stimulated with thapsigargin and PMA

inhibition, inactive:
Cc1ccc(C(=O)Nc2cccnc2)cc1NC(=O)c1ccco1 2.5%
COc1ccc(/C=C/c2nc3sc4c(c3c(=O)o2)CCC4)cc1 -1.7%
CCOC(=O)c1c(C(C)(C)C)oc2ccc(O)cc12 1.3%
Cc1cccc2nc(C(F)(F)F)nc(=O)n12 1.8%
Nc1nc(-c2ccco2)nn1C(=O)c1ccccc1 2.6%
CCS(=O)(=O)N1CCCC(C(=O)NC2CCCCC2C)C1 (stereo unspecified) 0.3%
O=C(Oc1ccccc1)N1CCN(c2ccc(F)cc2)CC1 6.6%
COCc1nnc(SCC(=O)Nc2cccc(Cl)c2C)n1-c1ccccc1 -0.4%
Cn1c(Sc2ccc(Br)cc2)c(C=O)c2ccccc21 -0.4%
O=C1c2cccc3cccc(c23)C(=O)N1OS(=O)(=O)c1ccccc1 2.1%
Cn1ccnc1SCC(=O)Nc1ccc(Oc2ccccc2)cc1 -4.5%
Cc1ccc(Sc2ccc(/C=N/O)cc2[N+](=O)[O-])cc1 -1.1%
CCOc1ccc(NC2=NC(C)(C)N=C(N)N2)cc1 0.8%
O=P(Cc1nnco1)(c1ccccc1)c1ccccc1 -1.1%
O=C1CC(SC(=Nc2ccccc2)Nc2ccccc2)C(=O)N1c1cccc2ccccc12 (stereo unspecified) -0.2%
COCc1ccccc1Cn1cnc2c1c(=O)n(C)c(=O)n2C -1.3%
Cn1c(NCCN2CCOCC2)nc2c1c(=O)n(Cc1cccc(Cl)c1)c(=O)n2C -3.6%
Cc1ccc(CN2C(=O)CCC2C(=O)NCCCN2CCCCC2C)cc1 (stereo unspecified) -1%
Cc1cc(=O)c2cccc(Br)c2[nH]1 2.4%
Cc1cc(NC(=O)COc2ncnc3sc(C)c(C)c23)no1 1.9%
Cc1nn(C(=O)c2ccco2)c(C)c1Br -2.6%
O=C(O)CSCc1cn2cc(Cl)ccc2n1 0.9%
O=C(COc1ccccc1O)N1CCN(C(=O)c2ccco2)CC1 0.9%
O=C(Nc1ccccc1)c1ccc(CSc2ncccn2)cc1 -1.2%
COc1ccc(CN2CCOCC2)cc1OC -1.3%
COc1ccccc1NC(=O)c1cc2ccccc2o/c1=N\O -3.5%
COC(=O)Cc1cc(=O)n2[nH]c(C)c(-c3ccccc3)c2n1 2.4%
CCOc1nc(N2CCCCC2)nc(-n2cc(-c3ccccc3)nn2)n1 -1.2%
Cc1nc2cc(S(=O)(=O)N3CCC(C(=O)O)CC3)ccc2n1C1CCCC1 -3.7%
Cn1c(=O)[nH]c(=O)c2c1nc(N1CCNCC1)n2CCOc1ccccc1 -0.5%
Cc1nnc(NC(=O)C2c3ccccc3Oc3ccccc32)s1 5.8%
CCOC(=O)/C(C#N)=C/c1cc(C)n(-c2ccccc2)c1C -2.9%
Cn1c(-c2ccc(-c3ccccc3)cc2)c[nH]c1=S -3.2%
NC(=S)N/N=C/c1ccccc1OCc1cccc(Cl)c1 0%
c1nnc(NC2=NCCC2)s1 -1.3%
O=C(c1ccc(=O)oc1)N1CCCc2ccccc21 -0.6%
CN(C(=O)CSc1nnc(Cc2ccccc2F)n1N)C1CCS(=O)(=O)C1 (stereo unspecified) -0.9%
O=C(/C=C/Nc1ccc(F)cc1)c1ccco1 -3.8%
Cc1csc2nc(CNC(=O)c3cccc(C(F)(F)F)c3)cn12 17.8%
CC(C)(C)C(=O)c1cnc(Nc2ccccc2)s1 0.7%
CCc1nnc(SCC(=O)Nc2ccc(C(C)=O)cc2)nc1CC -1%
O=C(O)c1cccc(CN2C(=O)CSC2=O)c1 -3.2%
O=C(CCN1CCc2ccccc2C(O)(c2ccccc2)C1)c1ccc2c(c1)OCCO2 (stereo unspecified) 2.1%
CC1(C)Cc2c(C#N)c(SCc3ccccc3)nc(N3CCOCC3)c2CO1 1.1%
c1ccc(Cn2c(SCc3cn4cccnc4n3)nnc2-c2ccco2)cc1 1%
O=C(CN1C(=O)NC2(CCCc3ccccc32)C1=O)N1CCc2ccccc2C1 (stereo unspecified) -2.2%
COC(=O)c1ccc(C(=O)OC)c(NC(=O)CSc2nnc(-c3ccccc3Cl)o2)c1 7%
Clc1ccccc1Cn1nnc2c(N3CCOCC3)nc(C3CC3)nc21 -4%
CC(C)c1nccn1S(=O)(=O)c1cc(Cl)ccc1Cl -3.5%
CC(C)CN(C(=O)CSc1nnc2ccccn12)c1c(N)n(CC(C)C)c(=O)[nH]c1=O -2.6%
COc1cc2c(C(=O)N3CCN(c4ccccc4)CC3)c(C)oc2cc1Br 0.3%
CC(C)CC(=O)Nc1ccc(C(=O)Cn2nc(C(=O)O)c3ccccc3c2=O)cc1 -3.3%
O=C(c1ccc(Cl)cc1)C(Cn1cncn1)C(Sc1ccccc1)c1ccccc1 (stereo unspecified) 0.6%
Cc1nc(N)c(C#N)c(-c2ccccc2Cl)c1C -3%
COc1ccc2c(c1OC)C(=O)OC2Nc1nc(-c2ccccc2)cs1 (stereo unspecified) -1.5%
Cc1nc2ccc(NC(=O)c3sccc3C)cc2s1 0.1%
O=C(c1ccco1)N(Cc1cc2ccccc2[nH]c1=O)C1CCCCC1 -2.8%
O=C(COC(=O)c1ccccn1)Nc1c(Cl)cccc1Cl 0.4%
CC1(C)CC(=O)c2c(nc3ccccc3c2N)C1 -1.6%
Nn1c(SCC(=O)N2CCc3ccccc3C2)nnc1-c1cccs1 0.7%
Cn1nc(-c2ccccc2)c2nc3ccccc3nc21 1.8%
O=C(NNS(=O)(=O)c1ccccc1)c1ccncc1 -3.7%
CC(CN1CCCCC1)OC(=O)c1ccccc1Cl (stereo unspecified) 1.6%
CCC(C(=O)N1CCc2ccccc2C1)n1nc(C)n2c(cc3occc32)c1=O (stereo unspecified) 11.8%
CCOc1ccc2nc(NC(=O)c3ccoc3C)sc2c1 -3.2%
Cc1nn(CCC(=O)O)c2nc(-c3cccnc3)cc(C(F)(F)F)c12 -3.2%

Random excerpt: 2 records from the list.
inhibition, inactive:
Cc1ccc(Sc2ccc(/C=N/O)cc2[N+](=O)[O-])cc1 -1.1%
CCOC(=O)/C(C#N)=C/c1cc(C)n(-c2ccccc2)c1C -2.9%
